According to the supplement of paper PMC4635364:
Counter-ions that a name gives are not always drawn. The list shows a part of the results. Repeats in this data set agree poorly, so a single value says little.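 Cells: ReNCell VM human fetal ventral-midbrain neural progenitors, differentiated mitogen-free. Blinded raters compared doublecortin-stained (early neurons) or tyrosine hydroxylase-stained (dopaminergic neurons) images with untreated wells, where 0 means no change. After repeats and both raters were averaged, compounds scoring 2 or above became hits for retesting.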

System: ReNCell VM
Test: neuronal differentiation score (DCX+ cell fraction vs untreated, manual image score) (score (-3 to 3)); higher = more neuronal differentiation
Settings: library: Spectrum; 2 uM; 2 weeks

Neuronal differentiation score, inactive:
O=c1c(O)cc([C@H]2Oc3cc(O)cc(O)c3C[C@H]2O)cc2c([C@H]3Oc4cc(O)cc(O)c4C[C@H]3O)cc(O)c(O)c12 0
CC[C@H]1OC(=O)C[C@@H](O)[C@H](C)[C@@H](O[C@@H]2O[C@H](C)[C@@H](O[C@H]3C[C@@](C)(O)[C@@H](O)[C@H](C)O3)[C@H](N(C)C)[C@H]2O)[C@@H](CC=O)C[C@@H](C)C(=O)/C=C/C(C)=C/[C@@H]1CO[C@@H]1O[C@H](C)[C@@H](O)[C@@H](OC)[C@H]1OC 0
CC(=O)S[C@@H]1CC2=CC(=O)CC[C@]2(C)[C@H]2CC[C@@]3(C)[C@@H](CC[C@@]34CCC(=O)O4)[C@H]12 0
CN(C)CCC(c1ccccc1)c1ccccn1 (configuration not stated) 0
COc1ccc(C(=O)CC(=O)c2ccc(C(C)(C)C)cc2)cc1 0
NS(=O)(=O)c1ccc(C(=O)O)cc1 0
Cc1nc(C)c(Cl)c(O)c1Cl 0
CCCCCCCCCCCCCCCC[N+](C)(C)C 0
CC(C)CCCC(C)C1CCC2C3CCC4CCCCC4(C)C3CCC12C (configuration not stated) 0
S=P(N1CC1)(N1CC1)N1CC1 0
Clc1ccc(CSC(Cn2ccnc2)c2ccc(Cl)cc2Cl)cc1 (configuration not stated) 0
CCOc1cc(NC(C)=O)ccc1C(=O)OC 0
C=C1CCC(C2CC(=O)OC2=O)C(=O)CCC2C1CC2(C)C (configuration not stated) 0
CN1CCC[C@@H]1Cc1c[nH]c2ccc(CCS(=O)(=O)c3ccccc3)cc12 0
O=C(O)CCCCCCCCCCCC[C@@H]1C=CCC1 0

Same assay, conditions: library: Tocriscreen; 2 uM; 2 weeks

Neuronal differentiation score, inactive:
O=S(=O)(c1cccc2c(Cl)cccc12)N1CCCNCC1 [ML 9 hydrochloride] 0
N#Cc1ccc(NCCNCC(=O)N2CCC[C@H]2C#N)nc1 [NVP DPP 728 dihydrochloride] 0
O=C(COc1cccc2c(=O)[nH]ccc12)c1ccccc1 0
CCc1cc(C(C)=O)c(O)cc1OCCCCCC(C)(C)c1nn[nH]n1 0
O=C(Cc1ccccc1)Nc1nc2ccc(Cl)cc2c2nc(-c3ccco3)nn12 -1
O=C(NCCCN1CCC2(CC1)OCc1ccccc12)[C@H]1CCCN1Cc1ccccc1 1
Cc1cccc(C(=O)NCN2CCN(c3ccccc3C#N)CC2)c1 0

System: ReNCell VM
Test: dopaminergic neuron differentiation score (TH+ cell fraction vs untreated, manual image score) (score (0 to 3)); higher = more TH+ dopaminergic neuron differentiation
Settings: library: LOPAC; 2 uM; 4 weeks; BDNF 10 ng/ml + GDNF 10 ng/ml

Dopaminergic neuron differentiation score, inactive:
COc1cc2c(CCNC(C)=O)c[nH]c2cc1O [6-Hydroxymelatonin] 0
CCN1CCCC1CNC(=O)c1cc(S(N)(=O)=O)ccc1OC (single isomer, unassigned; (-)) [(-)-Sulpiride] 0
O=c1cc(N2CCOCC2)oc2c(-c3ccccc3)cccc12 [LY-294,002 hydrochloride] 0
CC1=C(/C=C/C(C)=C/C=C/C(C)=C/C(=O)Nc2ccc(O)cc2)C(C)(C)CCC1 [Retinoic acid p-hydroxyanilide] 0
Cc1ccccc1/C=C/C1=NCCN1 [Metrazoline oxalate] 0
CC(=O)N[C@@H](CS)C(=O)O [N-Acetyl-L-Cysteine] 0
NC(=O)c1cc[n+](CC2=C(C(=O)O)N3C(=O)[C@@H](NC(=O)C(c4ccccc4)S(=O)(=O)[O-])[C@H]3SC2)cc1 (some centres not stated) [Cefsulodin sodium salt hydrate] 1
COc1cc(C(O)CO)ccc1OS(=O)(=O)O (configuration not stated) [MHPG sulfate potassium] 0

Looked up by structure from above, 2 records:
Dopaminergic neuron differentiation score, inactive:
Cc1ccccc1/C=C/C1=NCCN1 [Metrazoline oxalate] 0
COc1cc2c(CCNC(C)=O)c[nH]c2cc1O [6-Hydroxymelatonin] 0

Same assay, conditions: library: Prestwick; 2 uM; 4 weeks; BDNF 10 ng/ml + GDNF 10 ng/ml

Dopaminergic neuron differentiation score, inactive:
C[C@@H]1[C@H](O)[C@@H](C)/C=C/C=C/C=C/C=C/C=C/C=C/C=C/[C@H](O[C@@H]2O[C@H](C)[C@@H](O)[C@H](N)[C@@H]2O)C[C@@H]2O[C@](O)(C[C@@H](O)C[C@@H](O)[C@H](O)CC[C@@H](O)C[C@@H](O)CC(=O)O[C@H]1C)C[C@H](O)[C@H]2C(=O)O [Amphotericin B] 0
N[C@@H](Cc1ccc(O)c(O)c1)C(=O)O [Levodopa] 0
CC1(C)S[C@@H]2[C@H](NC(=O)[C@H](N)c3ccccc3)C(=O)N2[C@H]1C(=O)OC1OC(=O)c2ccccc21 (some centres not stated) [Talampicillin hydrochloride] 0
CCOc1ccccc1OCC1CNCCO1 (configuration not stated) [Viloxazine hydrochloride] 0
CC[C@H]1OC(=O)[C@H](C)[C@@H](O[C@H]2C[C@@](C)(OC)[C@@H](O)[C@H](C)O2)[C@H](C)[C@@H](O[C@@H]2O[C@H](C)C[C@H](N(C)C)[C@H]2O)[C@](C)(O)C[C@@H](C)CN(C)[C@H](C)[C@@H](O)[C@]1(C)O [Azithromycin] 0
CO[C@@H]1[C@@H](O[C@@H]2O[C@H](C)[C@@H](O[C@H]3C[C@@](C)(O)[C@@H](OC(=O)CC(C)C)[C@H](C)O3)[C@H](N(C)C)[C@H]2O)[C@@H](CC=O)C[C@@H](C)[C@@H](O)/C=C/C=C/C[C@@H](C)OC(=O)C[C@H]1OC(C)=O [Josamycin] 0
COC(=O)Nc1nc2ccc(SC(C)C)cc2[nH]1 [Methiazole] 0
